Experimental data taken from PMC10645975.
These are yes or no findings as the source states them, for the method shown. Binding seen in cells or lysates may run through a third protein. Some binding calls cover weakened binding; strength is not graded here.

Sequences of proteins named here, by UniProt entry; tags and fusion partners are left off.
UniProt Q9BPZ7: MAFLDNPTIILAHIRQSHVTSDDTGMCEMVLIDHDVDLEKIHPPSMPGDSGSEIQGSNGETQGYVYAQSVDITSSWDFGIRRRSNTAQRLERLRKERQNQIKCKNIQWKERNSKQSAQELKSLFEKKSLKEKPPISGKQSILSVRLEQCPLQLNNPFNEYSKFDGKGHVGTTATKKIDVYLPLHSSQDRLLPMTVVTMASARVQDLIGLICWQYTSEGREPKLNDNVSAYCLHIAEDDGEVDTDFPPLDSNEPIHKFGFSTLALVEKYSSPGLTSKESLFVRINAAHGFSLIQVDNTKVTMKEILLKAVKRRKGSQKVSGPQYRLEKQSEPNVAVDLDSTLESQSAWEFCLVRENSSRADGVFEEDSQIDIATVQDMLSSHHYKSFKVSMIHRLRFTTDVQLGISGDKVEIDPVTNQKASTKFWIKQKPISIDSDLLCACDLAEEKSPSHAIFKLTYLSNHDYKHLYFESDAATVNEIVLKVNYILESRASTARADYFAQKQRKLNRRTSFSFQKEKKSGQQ
UniProt B1AWN6: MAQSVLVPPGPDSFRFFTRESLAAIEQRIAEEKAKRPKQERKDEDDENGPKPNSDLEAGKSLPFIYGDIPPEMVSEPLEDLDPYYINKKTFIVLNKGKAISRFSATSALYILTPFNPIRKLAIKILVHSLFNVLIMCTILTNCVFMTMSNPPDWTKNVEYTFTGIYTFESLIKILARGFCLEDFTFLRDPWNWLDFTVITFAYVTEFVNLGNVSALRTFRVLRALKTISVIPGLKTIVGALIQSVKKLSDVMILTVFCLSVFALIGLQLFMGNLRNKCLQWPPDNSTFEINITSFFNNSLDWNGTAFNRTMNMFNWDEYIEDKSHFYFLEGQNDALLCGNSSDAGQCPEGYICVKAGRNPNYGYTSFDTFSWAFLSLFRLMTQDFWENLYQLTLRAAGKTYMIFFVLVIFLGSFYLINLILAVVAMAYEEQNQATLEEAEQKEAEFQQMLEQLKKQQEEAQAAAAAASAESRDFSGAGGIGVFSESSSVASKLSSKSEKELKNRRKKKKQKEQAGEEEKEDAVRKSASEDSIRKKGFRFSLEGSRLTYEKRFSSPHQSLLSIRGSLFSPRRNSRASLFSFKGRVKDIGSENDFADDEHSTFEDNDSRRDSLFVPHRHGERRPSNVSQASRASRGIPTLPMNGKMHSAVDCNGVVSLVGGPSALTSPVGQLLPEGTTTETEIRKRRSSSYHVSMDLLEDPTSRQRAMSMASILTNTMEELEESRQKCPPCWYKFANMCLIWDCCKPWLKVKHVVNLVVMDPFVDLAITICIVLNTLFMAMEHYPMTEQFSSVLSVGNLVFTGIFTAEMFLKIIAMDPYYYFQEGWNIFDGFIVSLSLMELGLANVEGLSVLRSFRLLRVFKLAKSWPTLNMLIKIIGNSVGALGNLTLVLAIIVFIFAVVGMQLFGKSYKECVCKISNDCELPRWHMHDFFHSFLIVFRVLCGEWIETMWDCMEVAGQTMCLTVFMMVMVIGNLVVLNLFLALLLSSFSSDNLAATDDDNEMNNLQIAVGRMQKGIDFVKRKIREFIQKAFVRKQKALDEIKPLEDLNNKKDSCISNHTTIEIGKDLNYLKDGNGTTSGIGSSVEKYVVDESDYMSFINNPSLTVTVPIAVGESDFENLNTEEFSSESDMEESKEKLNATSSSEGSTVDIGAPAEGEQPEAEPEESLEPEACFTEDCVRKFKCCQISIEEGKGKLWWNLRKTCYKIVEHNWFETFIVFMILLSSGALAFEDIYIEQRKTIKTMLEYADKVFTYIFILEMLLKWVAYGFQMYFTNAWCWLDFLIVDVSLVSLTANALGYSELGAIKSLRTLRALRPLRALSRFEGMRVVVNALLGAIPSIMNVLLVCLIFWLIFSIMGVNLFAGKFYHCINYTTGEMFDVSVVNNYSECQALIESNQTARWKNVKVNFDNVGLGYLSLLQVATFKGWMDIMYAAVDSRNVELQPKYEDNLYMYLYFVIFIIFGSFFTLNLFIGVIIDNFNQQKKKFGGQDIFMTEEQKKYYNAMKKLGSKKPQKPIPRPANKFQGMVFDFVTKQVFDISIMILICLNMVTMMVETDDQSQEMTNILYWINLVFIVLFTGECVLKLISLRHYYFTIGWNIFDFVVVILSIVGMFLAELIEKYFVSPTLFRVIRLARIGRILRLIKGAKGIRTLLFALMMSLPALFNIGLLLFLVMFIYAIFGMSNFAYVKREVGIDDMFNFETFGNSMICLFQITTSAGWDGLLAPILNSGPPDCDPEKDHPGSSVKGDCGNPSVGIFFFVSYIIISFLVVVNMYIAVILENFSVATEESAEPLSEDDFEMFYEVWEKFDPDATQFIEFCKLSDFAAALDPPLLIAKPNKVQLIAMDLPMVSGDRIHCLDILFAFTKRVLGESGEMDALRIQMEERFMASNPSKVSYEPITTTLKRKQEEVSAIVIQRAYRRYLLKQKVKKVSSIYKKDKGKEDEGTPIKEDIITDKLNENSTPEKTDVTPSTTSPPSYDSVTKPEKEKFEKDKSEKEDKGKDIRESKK
UniProt Q8N122: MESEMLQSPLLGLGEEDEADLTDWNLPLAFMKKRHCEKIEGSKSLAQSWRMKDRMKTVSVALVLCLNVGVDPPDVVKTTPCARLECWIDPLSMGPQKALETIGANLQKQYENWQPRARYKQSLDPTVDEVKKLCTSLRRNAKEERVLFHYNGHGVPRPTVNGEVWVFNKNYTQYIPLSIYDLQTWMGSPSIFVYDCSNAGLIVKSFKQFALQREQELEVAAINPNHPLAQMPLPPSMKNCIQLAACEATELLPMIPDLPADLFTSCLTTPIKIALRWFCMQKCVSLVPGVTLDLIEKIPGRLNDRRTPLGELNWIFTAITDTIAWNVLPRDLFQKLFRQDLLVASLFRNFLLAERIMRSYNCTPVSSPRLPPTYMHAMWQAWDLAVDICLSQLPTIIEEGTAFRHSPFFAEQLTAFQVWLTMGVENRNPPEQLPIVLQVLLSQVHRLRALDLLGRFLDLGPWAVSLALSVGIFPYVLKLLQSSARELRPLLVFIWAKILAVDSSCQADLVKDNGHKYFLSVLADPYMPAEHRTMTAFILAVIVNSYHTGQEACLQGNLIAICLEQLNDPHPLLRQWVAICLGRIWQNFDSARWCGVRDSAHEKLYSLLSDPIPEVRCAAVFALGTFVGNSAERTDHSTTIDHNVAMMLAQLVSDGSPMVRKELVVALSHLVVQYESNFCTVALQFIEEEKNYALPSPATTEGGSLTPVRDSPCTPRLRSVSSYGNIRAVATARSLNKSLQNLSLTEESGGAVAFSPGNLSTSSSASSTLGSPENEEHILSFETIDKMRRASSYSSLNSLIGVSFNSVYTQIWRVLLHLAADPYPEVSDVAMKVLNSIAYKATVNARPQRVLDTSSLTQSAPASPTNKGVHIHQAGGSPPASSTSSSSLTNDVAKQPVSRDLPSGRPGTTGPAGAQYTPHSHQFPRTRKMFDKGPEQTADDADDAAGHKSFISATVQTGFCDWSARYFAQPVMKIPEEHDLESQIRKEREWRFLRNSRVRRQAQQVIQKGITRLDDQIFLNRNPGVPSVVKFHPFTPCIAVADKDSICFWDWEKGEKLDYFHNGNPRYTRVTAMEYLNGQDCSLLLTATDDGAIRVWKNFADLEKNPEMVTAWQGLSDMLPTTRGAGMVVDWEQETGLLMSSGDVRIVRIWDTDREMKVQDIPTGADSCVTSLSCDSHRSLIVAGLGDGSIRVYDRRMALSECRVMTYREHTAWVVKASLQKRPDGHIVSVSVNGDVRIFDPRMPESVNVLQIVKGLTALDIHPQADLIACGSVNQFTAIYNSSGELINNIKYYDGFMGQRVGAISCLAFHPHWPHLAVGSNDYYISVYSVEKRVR

Experiments:
[1] = biological target: HA-Sin1 (mitogen-activated protein kinase associated protein 1) (UniProt Q9BPZ7); assay: co-IP; anti-HA magnetic beads on lysates of HEK293T cells co-expressing GFP-Scn2a and HA-Sin1; CHAPS lysis buffer (40 mM HEPES pH 7.5, 120 mM NaCl, 0.3% CHAPS), 4 C, 1 h or overnight; blots for GFP, HA, Raptor, Rictor, beta-actin
[2] = biological target: GFP-Nav1.2 (encoded by Scn2a) (UniProt B1AWN6); assay: co-IP; GFP-Trap magnetic particles on lysates of HEK293T cells expressing GFP or GFP-Scn2a alone or co-expressed with HA-Sin1; CHAPS lysis buffer (40 mM HEPES pH 7.5, 120 mM NaCl, 0.3% CHAPS), 4 C, 1 h or overnight; blots for GFP, Raptor, Rictor, beta-actin

| binding [1] | binding [2] | Substance |
| --- | --- | --- |
| binds |  | GFP-Nav1.2 (encoded by Scn2a) (from UniProt B1AWN6 1-2006) |
|  | no binding | Raptor (regulatory-associated protein of mTOR) (from UniProt Q8N122 1-1335) |
